# Measurements taken from patent US20030195152A1 (priority 2000, published 2003).
# Assay: general procedure: peptide synthesis; Wang resin; TBTU, HOBt, DIPEA
# Conditions: conjugation step, trifluoroacetate
substance,measurement,value
4-deacetyl-4-O-(t-butoxycarbonyl-6-aminohexanoyl-leucyl-glycyl-leucyl)-vinblastine,conjugation yield,75% yield
